From patent US11746100B2 (GLOBAL BLOOD THERAPEUTICS, INC., priority 2020, dated 2023)
At least one structure is not confirmed: it was looked up by name or label, or the drawing left a doubt.

Target: T1, human ferroportin (Homo sapiens, UniProt Q9NP59)
T1 construct: luciferase reporter (read with the Nano-Glo Luciferase Assay System); expressed in transfected cells; host or cells: CHO cells, stably transfected, expression induced with doxycycline
T1 sequence (Q9NP59 1-571): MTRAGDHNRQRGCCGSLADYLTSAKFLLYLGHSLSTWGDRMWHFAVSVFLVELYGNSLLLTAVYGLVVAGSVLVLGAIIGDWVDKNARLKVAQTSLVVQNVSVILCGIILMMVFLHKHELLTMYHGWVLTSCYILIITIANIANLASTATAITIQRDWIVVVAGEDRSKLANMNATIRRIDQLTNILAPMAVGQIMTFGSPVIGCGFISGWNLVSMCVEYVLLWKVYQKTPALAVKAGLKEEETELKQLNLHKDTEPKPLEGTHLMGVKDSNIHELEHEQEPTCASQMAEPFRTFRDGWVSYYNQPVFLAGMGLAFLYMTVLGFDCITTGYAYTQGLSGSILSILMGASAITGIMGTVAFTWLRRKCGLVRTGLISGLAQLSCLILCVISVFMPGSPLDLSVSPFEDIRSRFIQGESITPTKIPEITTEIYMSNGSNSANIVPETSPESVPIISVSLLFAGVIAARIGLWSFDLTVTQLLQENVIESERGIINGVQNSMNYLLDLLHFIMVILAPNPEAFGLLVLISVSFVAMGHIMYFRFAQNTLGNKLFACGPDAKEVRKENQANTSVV
Test: Biological in-vitro ferroportin internalization assay (luciferase reporter)
Type: cell-based
Conditions: average pEC50; stably-transfected CHO cell line expressing human ferroportin tagged to a luciferase reporter; 6 h incubation with test compound
Method: The protocol for this assay is generally as described in WO2018/128828, incorporated herein by reference in its entirety. Functional internalization of ferroportin protein was measured using a stably-transfected CHO cell line expressing the human ferroportin tagged to a luciferase reporter. Cells were plated for 24 h in the presence of ferric ammonium citrate (FAC). Ferroportin protein expression was induced with doxycycline for 24 h. The next day, the compounds were added. Test compounds were dissolved in DMSO. Cells were incubated with the test compounds for 6 h, and subsequently luciferase activity was measured using the Nano-Glo Luciferase Assay System and Glomax (Promega, Madison, Wis.). The average pEC50 was determined for the test compounds.

## CN(CC(=O)Nc1cccc(F)c1)c1nc(-c2ccccn2)nc2c1CCC2 [Compound 74, N-(3-fluorophenyl)-2-{methyl[2-(pyridin-2-yl)-5H,6H,7H-cyclopenta[d]pyrimidin-4-yl]amino}acetamide]
  pEC50: 7.5
